Laboratory results: patent US11672846B2, “Soluble bacterial and fungal proteins and methods and uses thereof in inhibiting and dispersing biofilm” (priority 2014, dated 2023)
Some results were stated once for a whole list of compounds, not compound by compound.

System: clinical and environmental P. aeruginosa isolates
Assay: Biofilm dispersal of clinical and environmental P. aeruginosa isolates
Conditions: 100-1000 nM, 1 hour, crystal violet

B1: PslG31-442: soluble PslG glycosyl hydrolase construct, residues 31-442, P. aeruginosa PAO1, SEQ ID NO: 11 (protein, listed as Pseudomonas aeruginosa)
chain: EIQVLKAPRAVVWKDFLGVNAQFLWFSPERYNKQIDRLQDLGLEWVRLDLHWDRLETAEDQYQLASLDQLVKDLEARQLKSVFYLVGSARFITTAPFYSPFQDQYPPRDPEVFARRMAMLSQRYPSVAAWQVWNEPNLIGFWRPKADPEGYAKLLQASTIALRMVDPEKPVVSAGMAFFSEMPDGRTMFDALGHLGVESLGTIATYHPYTQLPEGNYPWNLDFVSHANQINRALRNAGVPAIWSTEWGWSAYKGPKELQDIIGVEGQADYVLRRLALMSALDYDRIFLFTLSDLDQRASVRDRDYGLLDLDANPKPVYLALQRFLKVTGPKLRPADPPVTEDLPDGSFSIGWTREDGRNVWLFWSARGGNVRLPKLKEATLHDPLSGKVTPLSGSDGLEVPVKSSLQMLVWE
reduction in biofilm biomass: ≥ 90%

B2: PelA47-303: soluble PelA hydrolase domain, residues 47-303, P. aeruginosa PAO1, SEQ ID NO: 12 (protein, listed as Pseudomonas aeruginosa)
chain: GGPSSVAFWYAERPPLAELSQFDWVVLEAAHLKPADVGYLKEQGSTPFAYLSVGEFDGDAAAIADSGLARGKSAVRNQAWNSQVMDLAAPSWRAHLLKRAAELRKQGYAGLFLDTLDSFQLQAEERREGQRRALASFLAQLHRQEPGLKLFFNRGFEVLPELPGVASAVAVESIHAGWDAAAGQYREVPQDDRDWLKGHLDALRAQGMPIVAIDYLPPERRDEARALAARLRSEGYVPFVSTPALDYLGVSDVEVQP
reduction in biofilm biomass: ≥ 90%
